These are yes or no findings as the source states them, for the method shown. In cells and extracts the contact can be indirect. Some entries that bind do so weakly or less than the wild type. Where a sequence is shown, tags or fusion partners need not be part of it. Blank lines part the entries; values can stand above or below the molecule they belong to.
Molecular target: T1, Myc-tagged Kel1 (S. cerevisiae) (UniProt P38853)
T1 sequence: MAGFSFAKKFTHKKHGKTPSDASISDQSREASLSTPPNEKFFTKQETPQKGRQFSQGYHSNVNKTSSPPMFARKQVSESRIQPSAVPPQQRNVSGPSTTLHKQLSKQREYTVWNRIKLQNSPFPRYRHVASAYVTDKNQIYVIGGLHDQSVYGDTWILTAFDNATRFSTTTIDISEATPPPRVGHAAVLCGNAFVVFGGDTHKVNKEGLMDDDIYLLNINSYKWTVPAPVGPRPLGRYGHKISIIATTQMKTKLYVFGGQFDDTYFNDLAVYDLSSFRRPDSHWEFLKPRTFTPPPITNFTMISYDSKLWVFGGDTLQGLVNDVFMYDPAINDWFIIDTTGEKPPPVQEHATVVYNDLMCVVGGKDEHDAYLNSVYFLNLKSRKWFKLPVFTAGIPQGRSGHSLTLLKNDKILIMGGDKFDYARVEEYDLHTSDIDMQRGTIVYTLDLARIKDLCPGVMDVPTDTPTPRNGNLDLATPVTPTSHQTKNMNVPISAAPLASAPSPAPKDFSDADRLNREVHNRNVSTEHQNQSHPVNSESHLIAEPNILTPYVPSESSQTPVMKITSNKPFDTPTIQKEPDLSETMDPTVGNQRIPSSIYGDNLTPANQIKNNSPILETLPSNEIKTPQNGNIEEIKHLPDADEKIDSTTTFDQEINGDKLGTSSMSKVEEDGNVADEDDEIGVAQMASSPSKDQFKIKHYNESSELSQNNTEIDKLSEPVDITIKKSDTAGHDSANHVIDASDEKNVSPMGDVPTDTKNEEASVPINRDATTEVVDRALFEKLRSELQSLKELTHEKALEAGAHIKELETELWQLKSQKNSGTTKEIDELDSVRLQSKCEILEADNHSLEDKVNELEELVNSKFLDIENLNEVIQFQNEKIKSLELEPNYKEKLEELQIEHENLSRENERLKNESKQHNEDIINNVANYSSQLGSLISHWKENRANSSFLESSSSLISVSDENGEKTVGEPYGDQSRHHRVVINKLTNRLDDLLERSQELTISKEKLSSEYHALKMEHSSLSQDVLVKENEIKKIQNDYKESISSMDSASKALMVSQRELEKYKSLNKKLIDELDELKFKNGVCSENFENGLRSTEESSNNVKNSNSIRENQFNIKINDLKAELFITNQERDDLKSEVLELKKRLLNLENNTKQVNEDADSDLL
Experiment: co-IP

Chains of the proteins cited; added tags and fusions are not shown.
UniProt P16892: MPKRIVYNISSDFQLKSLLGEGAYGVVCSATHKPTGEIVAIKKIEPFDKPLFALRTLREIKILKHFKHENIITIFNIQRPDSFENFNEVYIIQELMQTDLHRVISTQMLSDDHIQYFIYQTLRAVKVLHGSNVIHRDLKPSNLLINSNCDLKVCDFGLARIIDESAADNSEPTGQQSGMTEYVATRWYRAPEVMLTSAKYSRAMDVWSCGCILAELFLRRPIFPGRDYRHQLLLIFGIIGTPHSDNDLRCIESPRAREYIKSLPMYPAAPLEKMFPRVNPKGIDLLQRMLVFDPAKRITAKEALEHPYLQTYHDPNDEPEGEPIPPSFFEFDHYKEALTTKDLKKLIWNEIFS

binding: binds
Molecule: MAPK Fus3 (from UniProt P16892 1-353) (enzyme)

binding: binds
B1: Ste2-GFP (receptor, UniProt D6VTK4 1-431)
chain: MSDAAPSLSNLFYDPTYNPGQSTINYTSIYGNGSTITFDELQGLVNSTVTQAIMFGVRCGAAALTLIVMWMTSRSRKTPIFIINQVSLFLIILHSALYFKYLLSNYSSVTYALTGFPQFISRGDVHVYGATNIIQVLLVASIETSLVFQIKVIFTGDNFKRIGLMLTSISFTLGIATVTMYFVSAVKGMIVTYNDVSATQDKYFNASTILLASSINFMSFVLVVKLILAIRSRRFLGLKQFDSFHILLIMSCQSLLVPSIIFILAYSLKPNQGTDVLTTVATLLAVLSLPLSSMWATAANNASKTNTITSDFTTSTDRFYPGTLSSFQTDSINNDAKSSLRSRLYDLYPRRKETTSDKHSERTFVSETADDIEKNQFYQLPTPTSSKNTRIGPFADASYKEGEVEPVDMYTPDTAADEEARKFWTEDNNNL

Reference: doi:10.1101/2021.05.19.443414
